The list shows a part of the results. Potency and affinity values are given separately.

This assay has as its system Acinetobacter baumannii. To be noted: Concentration 32 ug.mL-1; ASSAY_TEST Inhibition of Bacterial Growth; detection method Absorption (OD600); MEDIA CAMHB; plate type 384well; NBS; CORNING #3640; time 18 hr.
Take `[N-]=[N+]=NC[C@H]1OC(O)[C@@H](O)[C@@H]1O` (stereo partly specified): the Inhibition (in general, the percentage by which the read-out fell short of the control) is given as 3.58%.

These data come from ChEMBL document CHEMBL4513143, “CO-ADD screening of University of Natural Resources and Life (Austria) compounds”.
